In PubChem BioAssay AID662 (National Center for Advancing Translational Sciences (NCATS), 2007):
This is one part of the list. These are further read-outs of the screen, such as a control signal, another cell line or another target. No call is given for them. Compounds called inactive in the main read-out are mostly missing here. The note in brackets gives the kind of curve behind each potency; many fits are weak.

Assay: Cell signaling CRE-BLA (Fsk stim)
Conditions: CHO CRE-bla reporter (cAMP response element driving beta-lactamase), forskolin EC10, beta-lactamase ratio; measured here: 460 nm blue channel
Method in brief: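 AC50 values, positive or negative, reflect shifts in EC10 NKH 477-induced CRE-bla reporter activity in CHO cells. Incubation lasted 3 h at 37 °C before CCF4 substrate (2 h, room temperature) and ratiometric 460/530 nm reading.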

Compound	AC50
COc1cc(C2C(C(=O)c3cccs3)=C(O)C(=O)N2Cc2ccco2)cc(OC)c1OC (configuration not stated)	0.00398 µM [falling, full curve]
O=C(c1ccc(CS(=O)(=O)c2c(Cl)cccc2Cl)o1)N1CCN(c2ccccn2)CC1	12.6 µM [rising, partial curve]
O=c1[nH]c(CSc2nnc(-c3ccco3)n2-c2ccccc2)nc2sc3c(c12)CCC3	10 µM [rising, partial curve]
CCn1c(=O)n(CC)c2cc(S(=O)(=O)Nc3ccccc3C)c(C)cc21	10 µM [rising, single point]
Cn1c2ccccc2c2c(C(=O)NCC3CCCO3)cn(C3CCCC3)c(=O)c21 (configuration not stated)	10 µM [rising, partial curve]
CCOC(=O)N1CCC(NC(=O)Cn2c3ccccc3c3cn[nH]c(=O)c32)CC1	0.316 µM [falling, partial curve, poor fit]
COc1ccc(C2/C(=C(/O)c3ccccc3)C(=O)C(=O)N2CC(C)O)c(OC)c1 (configuration not stated)	7.94 µM [falling, partial curve]
Cc1cc(Nc2ccc(Br)c(C)c2)n2nc(C)nc2n1	7.94 µM [rising, partial curve]
CCc1ccc(NC(=O)N(CCCOC(C)C)C2CCN(C(C)=O)CC2)cc1	5.01 µM [falling, partial curve, poor fit]
CNc1nc2c(c(=O)[nH]c(=O)n2C)n1CCOC	3.16 µM [falling, partial curve]
Cc1cnc(CNc2ncnc3ccc(-c4ccccc4C)cc23)cn1	10 µM [rising, partial curve]
CN1CCN(c2ncc3nc(-c4cn(C)c5ccccc45)c(=O)n(C[C@H]4CCCO4)c3n2)CC1	12.6 µM [rising, partial curve]
CCn1c(=O)cc(OCC(=O)Nc2ccc3c(c2)OCCO3)c2ccccc21	3.98 µM [rising, full curve, poor fit]
CCCCn1c(=N)n(CC(=O)C(C)(C)C)c2ccccc21	3.16 µM [falling, full curve]
c1ccc(-c2noc(-c3ccncc3)n2)nc1	0.00316 µM [falling, full curve, poor fit]
Cc1noc(C)c1-c1ccc2ncnc(NCCN3CCOCC3)c2c1	7.94 µM [rising, partial curve]
CC(C)(C)SCCNC(=O)CN(c1ccc(F)cc1)S(C)(=O)=O	0.00398 µM [falling, full curve, poor fit]
COc1ccccc1-c1ccc2ncnc(N3CCNCC3)c2c1	15.8 µM [rising, partial curve]
O=C(CSc1nc(Nc2ccccc2)nc(N2CCOCC2)n1)N1CCc2ccccc21	3.16 µM [rising, full curve]
CCN(CC)S(=O)(=O)c1cccc(C(=O)Nc2ccccc2C(=O)N2CCOCC2)c1	25.1 µM [rising, partial curve, poor fit]
COc1cccc(Cn2c(=O)c(C)nc3cnc(Oc4ccccc4)nc32)c1	12.6 µM [rising, partial curve]

Compound	AC50
O=C(Cc1cccs1)NCc1ccc2c(c1)OCO2	7.94 µM [rising, single point]
Cc1ccc(Cn2c(CN(C)Cc3ccccc3)nc3c2c(=O)n(C)c(=O)n3C)cc1	12.6 µM [rising, partial curve]
CCN(Cc1nc2ccccc2c(=O)[nH]1)Cc1nc2cc(OC)c(OC)cc2c(=O)[nH]1	2.51 µM [rising, partial curve]
CSc1ccccc1N=CC1=C(O)CC(C)(C)CC1=O	7.94 µM [falling, partial curve]
CC(C)[C@@H]1C(=O)N(S(C)(=O)=O)[C@H]2CCN(C(=O)/C=C\CN3CCCCC3)[C@@H]12	31.6 µM [falling, single point]
CN(C)C(=O)c1ccc(-c2nc(Nc3ccccc3)c3ccccc3n2)cc1	3.16 µM [rising, full curve]
CCN(CC)S(=O)(=O)c1ccc2nnn(OCC(=O)Nc3cccc(C#N)c3)c2c1	12.6 µM [rising, single point]
CCOc1ccc(OCC)c(NC(=O)C2CCCN(c3ncccn3)C2)c1 (configuration not stated)	10 µM [rising, single point]
CCN(C(=O)Cc1cccs1)c1nnc(-c2cc(OC)c(OC)c(OC)c2)s1	10 µM [rising, partial curve]
CC1CN(C(=O)Nc2ccc3snnc3c2)c2ccccc21 (configuration not stated)	25.1 µM [falling, single point]
O=C(CSc1ccc2nnc(-c3ccncc3)n2n1)Nc1ccc2c(c1)OCO2	10 µM [rising, single point]
O=C(CCN1CCN(CCO)CC1)Nc1ccc(F)c(F)c1	0.501 µM [rising, full curve, poor fit]
COc1ccc(-c2nnc3sc(C4CCCCC4)nn23)cc1OC	1 µM [rising, full curve]
C1=CC2C3C=CC(C3)C2C1 (configuration not stated)	1 µM [falling, full curve, poor fit]
CCOC(=O)c1c(NC(=O)COC(=O)Cn2cnc3ccccc32)sc(C)c1C	10 µM [rising, single point]
CN(C)c1ncc2nc(-c3ccc(F)cc3)c(=O)n(C3CC3)c2n1	2.51 µM [rising, full curve]
Cc1cc(C)c(C#N)c(SCC(=O)c2cccs2)n1	15.8 µM [rising, partial curve]
Cc1ccc(Cn2c(=N)c(C(=O)NCc3ccco3)cc3c(=O)n4ccccc4nc32)cc1	10 µM [rising, partial curve]
Cc1ccc(P(=O)(O)c2ccc(C)cc2)cc1	0.00316 µM [falling, full curve, poor fit]
CCn1c(=O)n(CC(=O)Nc2cc(OC)ccc2OC)c(=O)c2ccccc21	10 µM [rising, partial curve]
COC(=O)C1=C(C)NC2=C(C(=O)c3ccccc32)C1c1ccc(-c2ccc(C(=O)O)cc2)o1 (configuration not stated)	0.398 µM [rising, full curve]

Rewritten as comma-separated lines: 2 of the compounds above
Compound,AC50
CN(C)c1ncc2nc(-c3ccc(F)cc3)c(=O)n(C3CC3)c2n1,"2.51 µM [rising, full curve]"
Cc1cc(C)c(C#N)c(SCC(=O)c2cccs2)n1,"15.8 µM [rising, partial curve]"
